Data as given in PubChem BioAssay AID504784 (Drosophila RNAi Screening Center, 2011)
Purpose: 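Genome-wide knock-down for genes giving too much or too little stored lipid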 (primary screen). Cells: Drosophila Kc167 embryonic cells. Reagents: long dsRNA against Drosophila genes, about 250 ng dsRNA per well. Time to read-out: 4 days. Challenge: cells fed 400 µM oleic acid bound to BSA. Read-out: 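Microscope images give a droplet-to-nucleus area ratio, taken as log and converted to a screen-wide B-score; higher values mean greater lipid storage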. Scale: droplet/nuclear area B-score: higher = more stored lipid (overstorage).
The deposit covers about 17,000 reagents; shown is an unselected part of those with a known target gene and a result. 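Each column is one replicate's B-score; the combined score over replicates was not deposited, so single values may mislead.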 Not all columns of the deposit are shown. Reagent sequences are not shown.

target gene | dsRNA | droplet/nuclear area B-score, replicate 1
CG16863 | DRSC01892 | 0.19
msd5 (mitotic spindle density 5) | DRSC08560 | 0.554
CG3565 | DRSC04389 | -0.321
sub (subito) | DRSC06125 | -0.279
Nt5a (5' nucleotidase A) | DRSC08561 | 6.8
ghi (ghiberti) | DRSC08985 | -0.581
CG13215 | DRSC06337 | -0.0171
CG31601 | DRSC03678 | -0.337
Ctu1 (Cytosolic thiouridylase subunit 1) | DRSC07069 | 0.086
CG33107 | DRSC21898 | -0.0184
CG30355 | DRSC21958 | -0.182
CG15406 | DRSC00420 | -1.85
CG2736 | DRSC04314 | -0.153
CG18538 | DRSC06765 | -1.86
bru3 (bruno 3) | DRSC09280 | 0.524
bru3 (bruno 3) | DRSC09687 | -0.0253
bru3 (bruno 3) | DRSC09887 | 1.54
bru3 (bruno 3) | DRSC22732 | -1.77
gNacalpha | DRSC00654 | -0.412

Records above whose target name starts with G or g (2):
target gene | dsRNA | droplet/nuclear area B-score, replicate 1
ghi (ghiberti) | DRSC08985 | -0.581
gNacalpha | DRSC00654 | -0.412

Further entries follow:
target gene | dsRNA | droplet/nuclear area B-score, replicate 1
S6k (Ribosomal protein S6 kinase) | DRSC11276 | 1.35
CG9222 | DRSC03158 | -2.4
CG7342 | DRSC16230 | 1.05
CG32236 | DRSC08117 | 2.17
Zif (Zinc-finger protein) | DRSC12514 | 1.4
CG11674 | DRSC19414 | 0.363
lambdaTry | DRSC06137 | -0.111
CG12814 | DRSC14552 | 1.06
CG12814 | DRSC14553 | -1.96
Pect (Phosphoethanolamine cytidylyltransferase) | DRSC02867 | 0.307
Pect (Phosphoethanolamine cytidylyltransferase) | DRSC02868 | 0.0592
ph-d (polyhomeotic distal) | DRSC18819 | 1.53
ph-d (polyhomeotic distal) | DRSC23191 | -1.06
GIIIspla2 (Phospholipase A2 group III) | DRSC18094 | -1.02
bsd (back seat driver) | DRSC05953 | -0.143
